In the test the test system is B6C3F1 mice, B16 melanoma ip, median survival T/C. Briefly: NCI In Vivo Anticancer Drug Screen. Data for tumor model B16 Melanoma (intraperitoneal) in B6C3F1 mice. The conditions noted are these: T/C endpoint: median survival time, higher T/C = longer survival. The essentials:
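Transplantable tumor in mice; treated vs vehicle control groups; survival or tumor size measured; value = T/C ratio.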

[1] abbreviates: dose: 8.0 mg/kg/injection, schedule: Q01DX009 (ip), vehicle: sodium bicarbonate.
[2] abbreviates: dose: 16.0 mg/kg/injection, schedule: Q01DX009 (ip), vehicle: sodium bicarbonate.
Setting [3] is: dose: 200.0 mg/kg/injection, schedule: Q01DX009 (ip), vehicle: saline with Tween-80.
[4] abbreviates: dose: 400.0 mg/kg/injection, schedule: Q01DX009 (ip), vehicle: saline with Tween-80.
The mark [5] stands for this setting: dose: 800.0 mg/kg/injection, schedule: Q01DX009 (ip), vehicle: saline with Tween-80.
Where [6] appears, read: dose: 100.0 mg/kg/injection, schedule: Q01DX009 (ip), vehicle: saline with Tween-80.
The mark [7] stands for this setting: dose: 50.0 mg/kg/injection, schedule: Q01DX009 (ip), vehicle: Klucel (hydroxypropylcellulose) (HPC).
Where [8] appears, read: dose: 100.0 mg/kg/injection, schedule: Q01DX009 (ip), vehicle: Klucel (hydroxypropylcellulose) (HPC).
Setting [9] is: dose: 200.0 mg/kg/injection, schedule: Q01DX009 (ip), vehicle: Klucel (hydroxypropylcellulose) (HPC).
The mark [10] stands for this setting: dose: 25.0 mg/kg/injection, schedule: Q01DX009 (ip), vehicle: Klucel (hydroxypropylcellulose) (HPC).
[11] abbreviates: dose: 0.06 mg/kg/injection, schedule: Q01DX009 (ip), vehicle: saline + alcohol.
[12] abbreviates: dose: 0.12 mg/kg/injection, schedule: Q01DX009 (ip), vehicle: saline + alcohol.

The list shows only some results of the screen, not a fair sample: it gathers tests that were run many times, whatever their T/C, doses with no T/C, and many T/C values between a quarter and a half above the control. Other doses and runs of a compound stand elsewhere. T/C gives the treated animals as a percentage of the vehicle group. Some entries give survivors of the animals treated and no T/C: the source files T/C as zero there, which appears to mark a toxic dose or a test without result, not a measured value. Some doses without a T/C left all or most animals alive at the check, yet need not have been tolerated: survival well below the control is almost never listed, so the zero probably covers shortened survival too. Survivors were counted at the toxicity check, usually on the fifth day, unless a day is given; later deaths do not show. Schedule codes are those of the source, taken here to give the interval after Q, in days (D) or hours (H), and the number of doses after X. Signs of the kind (2×) give the number of equal values in this list. Some entries were tested several times; the values are given in rising order. Where survival is the endpoint, the PubChem record calls one and a half times the control and up active, and a quarter to a half above the control has no call in these data; cut-offs in other NCI protocols can differ. Some T/C values are followed by the survivors on the day toxicity was checked, most often the fifth; where none is given, no animal had died by that day.

Consider `CN(Cc1cnc2nc(N)nc(N)c2n1)c1ccc(C(=O)N[C@@H](CCC(=O)O)C(=O)O)cc1`, for which the T/C is 90, 91 [8 of 10 alive], 93, 96, 96 [8 of 10 alive], 103 % of control (dose: 1.0 mg/kg/injection, schedule: Q01DX009 (ip), vehicle: sodium bicarbonate); 97, 98, 99 (2×), 104, 105 % of control (dose: 2.0 mg/kg/injection, schedule: Q01DX009 (ip), vehicle: sodium bicarbonate); 86, 95, 99, 102, 105, 107 % of control (dose: 4.0 mg/kg/injection, schedule: Q01DX009 (ip), vehicle: sodium bicarbonate); 93, 94 [9 of 10 alive], 95 [9 of 10 alive], 96, 100 % of control under setting [1]; 89 [9 of 10 alive] and 101 % of control under setting [2]. Also, the survivor count under setting [1] was 10 of 10; the survivor count under setting [2] is 9 of 10 and 10 of 10.
With `OCc1c(CO)c(-c2ccc(Cl)cc2)n2c1CCC2`, where the note is “dose: 400.0 mg/kg/injection, schedule: Q01DX009 (ip), vehicle: distilled water + Tween-80”, the survivor count is listed as 10 of 10.
With `CSc1cc(=O)n2c3ccccc3c3ccnc1c32`, the survivor count (dose: 20.0 mg/kg/injection, schedule: Q01DX009 (ip), vehicle: saline with Tween-80) is given as 9 of 10.
For `CCSC(=O)N1c2ccc(OC)cc2C=CC1C#N` (stereo not given), the T/C reads like this: under setting [3], 141 % of control; under setting [4], 139 % of control. Also, the survivor count is, setting by setting: under setting [4], 10 of 10; under setting [5], 7 of 10 and 10 of 10.
For `COC(=O)Nc1ccc(Cc2ccc(NC(=O)OC)cc2)cc1`, the T/C was 128 % of control (dose: 50.0 mg/kg/injection, schedule: Q01DX009 (ip), vehicle: saline with Tween-80) and 143 % of control under setting [6]. Further, the survivor count under setting [3] is 10 of 10 (2×) and the survivor count under setting [4] was 8 of 10.
Take `Nc1cc(Cl)c2[nH]cnc2n1`: for the setting “dose: 200.0 mg/kg/injection, schedule: Q01DX009 (ip), vehicle: distilled water + Tween-80”, the survivor count was 8 of 9.
Take `C=C(OC)C(Nc1cc(OC)c(OC)cc1C(=O)OC1CC(O[C@@H]2C(=O)C(NC(=O)OC)=C3/C(=C\CSSSC)[C@]2(O)C#C/C=C\C#C[C@@H]3OC2OC(C)C(NOC3CC(O)C(SC)C(C)O3)C(O)C2OC2CC(OC)C(NCCC)CO2)OC(C)C1O)OC` (stereo not given in full): the survivor count is 9 of 10 (dose: 1.25 micrograms/kg/injection, schedule: Q01DX009 (ip), vehicle: saline + alcohol); 8 of 10 (dose: 2.5 micrograms/kg/injection, schedule: Q01DX009 (ip), vehicle: saline + alcohol); 1 of 10 (dose: 5.0 micrograms/kg/injection, schedule: Q01DX009 (ip), vehicle: saline + alcohol). Moreover, the T/C (dose: 10.0 nanograms/kg/injection, schedule: Q01DX009 (ip), vehicle: saline + alcohol) was 137 % of control.
As to `COCC1OC2OC3C(COC)OC(OC4C(COC)OC(OC5C(COC)OC(OC6C(COC)OC(OC7C(COC)OC(OC8C(COC)OC(OC1C(O)C2O)C(O)C8O)C(O)C7O)C(O)C6O)C(O)C5O)C(O)C4O)C(O)C3O` (stereo not given) (tested in a mixture with another compound), the survivor count (dose: 50.0 mg/kg/injection, schedule: Q01DX009 (oral), vehicle: Klucel (hydroxypropylcellulose) (HPC)) is 9 of 10; the survivor count (dose: 200.0 mg/kg/injection, schedule: Q01DX009 (oral), vehicle: Klucel (hydroxypropylcellulose) (HPC)) was 9 of 10 and 10 of 10; the survivor count (dose: 200.0 mg/kg/injection, schedule: Q04HX027 (ip), vehicle: Klucel (hydroxypropylcellulose) (HPC)) is 10 of 10; the survivor count (dose: 400.0 mg/kg/injection, schedule: Q04HX027 (ip), vehicle: Klucel (hydroxypropylcellulose) (HPC)) was 8 of 10; the survivor count (dose: 800.0 mg/kg/injection, schedule: Q01DX009 (ip), vehicle: Klucel (hydroxypropylcellulose) (HPC)) is 5 of 10; the survivor count (dose: 800.0 mg/kg/injection, schedule: Q01DX009 (oral), vehicle: Klucel (hydroxypropylcellulose) (HPC)) is 7 of 10. For the same compound, the survivor count (dose: 800.0 mg/kg/injection, schedule: Q04HX027 (ip), vehicle: Klucel (hydroxypropylcellulose) (HPC)) is on record as 1 of 10; the survivor count (dose: 1600.0 mg/kg/injection, schedule: Q01DX009 (oral), vehicle: Klucel (hydroxypropylcellulose) (HPC)) is 1 of 10; the survivor count (dose: 3200.0 mg/kg/injection, schedule: Q01DX009 (oral), vehicle: Klucel (hydroxypropylcellulose) (HPC)) is 9 of 10.
Consider `O=C(Nc1ccc(N=C=S)cc1Cl)c1cc(Cl)cc(Cl)c1O`, for which the T/C under setting [7] was 130 % of control. For the same compound, the survivor count is, setting by setting: under setting [8], 1 of 10; under setting [9], 0 of 10.
As to `CC(=O)Nc1cc2oc3ccccc3c2cc1[N+](=O)[O-]`, the survivor count under setting [3] was 10 of 10.
For `CN=C(NC)c1ccc(NC(=O)/C=C\c2ccc(/C=C/C(=O)Nc3ccc(C(=NC)NC)cc3)cc2)cc1`, the survivor count reads like this: (dose: 12.5 mg/kg/injection, schedule: Q01DX009 (ip), vehicle: Klucel (hydroxypropylcellulose) (HPC)) 10 of 10; under setting [10], 0 of 10.
Take `C=Cc1cc(OC)c2c(c1)c(=O)oc1c2cc(OC)c2c(O)ccc(C3OC(C(C)O)C(O)C3O)c21` (stereo not given): the T/C was 132 % of control under setting [7] and 145 % of control under setting [8]. In addition, the survivor count under setting [9] is 4 of 10 and the survivor count (dose: 400.0 mg/kg/injection, schedule: Q01DX009 (ip), vehicle: Klucel (hydroxypropylcellulose) (HPC)) was 2 of 10.
As to `COC(C(=O)C(O)C(C)O)C1CC2C=C3C=C(OC4CC(OC5CC(O)C(OC)C(C)O5)C(OC(C)=O)C(C)O4)C(C)C(=O)C3=C(O)C2=C(O)C1OC1CC(OC2CC(OC3CC(C)(O)C(O)C(C)O3)C(O)C(C)O2)C(O)C(C)O1` (stereo not given), the T/C (dose: 2.0 mg/kg/injection, schedule: Q01DX009 (ip), vehicle: saline with Tween-80) was 127 % of control.
As to `COC(=O)[C@@]12OC[C@]34[C@H]([C@@H](O)[C@@H]1O)[C@@]1(C)CC(=O)C(O)=C(C)[C@@H]1C[C@H]3OC(=O)[C@H](OC(=O)/C=C(\C)C1(C)CO1)[C@@H]24` (stereo not given in full), the T/C is 136 % of control [9 of 10 alive] (dose: 0.01 mg/kg/injection, schedule: Q01DX009 (ip), vehicle: saline + alcohol); 129 % of control [9 of 10 alive] (dose: 0.03 mg/kg/injection, schedule: Q01DX009 (ip), vehicle: saline + alcohol); 131 % of control under setting [11]; 143 % of control under setting [12]. The survivor count is 10 of 10 under setting [11]; 2 of 10 and 5 of 10 under setting [12]; 2 of 10 (dose: 0.25 mg/kg/injection, schedule: Q01DX009 (ip), vehicle: saline + alcohol); 0 of 10 and 7 of 10 (dose: 0.5 mg/kg/injection, schedule: Q01DX009 (ip), vehicle: saline + alcohol); 4 of 10 (dose: 1.0 mg/kg/injection, schedule: Q01DX009 (ip), vehicle: saline + alcohol); 0 of 10 (dose: 2.0 mg/kg/injection, schedule: Q01DX009 (ip), vehicle: saline + alcohol). Moreover, the survivor count (dose: 4.0 mg/kg/injection, schedule: Q01DX009 (ip), vehicle: saline + alcohol) is recorded as 0 of 10.
Turning to `CN1N=C(N)c2cn(C3OC(COP(=O)(O)O)C(O)C3O)c3ncnc1c23` (stereo not given), the survivor count under setting [9] is reported as 1 of 8.
Take `C/C(=N\NC(=S)N1CCN(c2ccccn2)CC1)c1ccccn1`: the survivor count is given as 6 of 10 (dose: 50.0 mg/kg/injection, schedule: Q01DX009 (ip), vehicle: water) and 0 of 10 (dose: 100.0 mg/kg/injection, schedule: Q01DX009 (ip), vehicle: water).
Consider `CCCCNc1nc(N)nc(Nc2ccc(Br)cc2)c1N=O`, for which, under setting [10], the T/C is 132 % of control.
As to `Nc1nc(N)c2cc(S(=O)(=O)c3ccccc3)ccc2n1`, the T/C under setting [6] is 129 and 134 % of control. The survivor count under setting [4] is given as 10 of 10 and the survivor count under setting [5] is given as 10 of 10.
